Some entries share one result that the patent states for a list of compounds.
System: HIV
Experiment: anti-HIV activity in freshly harvested PBMC cells
Format: cell-based

Structure (SMILES): CN(C)c1cccc2c(C=O)ccc(N(C)C)c12 [4,5-bis(dimethylamino-1-naphthaldehyde]
- antiviral index (inhibited HIV cells and not PBMC cells): greater than 25

Structure (SMILES): O=C1c2ccccc2C(=O)c2c1nc1ccccn21 [naphtho[2′,3′,4,5]imidazo[1,2-a]pyridine-6,11-dione]
- antiviral index (inhibited HIV cells and not PBMC cells): greater than 25

From patent US9677143B2, “Compositions and methods for the identification of inhibitors of retroviral infection” (Trana Discovery, Inc., priority 2007, dated 2017)
